In patent US20030113320A1 (BURNHAM INSTITUTE, published 2003):
Results are given in words; binding and its absence hold for the method and conditions named. Some entries that bind do so weakly or less than the wild type.

Sequences of proteins named here, by UniProt entry; tags and fusion partners are left off. A change or cut given only in a name is not applied to a line headed by its entry.
UniProt P15144: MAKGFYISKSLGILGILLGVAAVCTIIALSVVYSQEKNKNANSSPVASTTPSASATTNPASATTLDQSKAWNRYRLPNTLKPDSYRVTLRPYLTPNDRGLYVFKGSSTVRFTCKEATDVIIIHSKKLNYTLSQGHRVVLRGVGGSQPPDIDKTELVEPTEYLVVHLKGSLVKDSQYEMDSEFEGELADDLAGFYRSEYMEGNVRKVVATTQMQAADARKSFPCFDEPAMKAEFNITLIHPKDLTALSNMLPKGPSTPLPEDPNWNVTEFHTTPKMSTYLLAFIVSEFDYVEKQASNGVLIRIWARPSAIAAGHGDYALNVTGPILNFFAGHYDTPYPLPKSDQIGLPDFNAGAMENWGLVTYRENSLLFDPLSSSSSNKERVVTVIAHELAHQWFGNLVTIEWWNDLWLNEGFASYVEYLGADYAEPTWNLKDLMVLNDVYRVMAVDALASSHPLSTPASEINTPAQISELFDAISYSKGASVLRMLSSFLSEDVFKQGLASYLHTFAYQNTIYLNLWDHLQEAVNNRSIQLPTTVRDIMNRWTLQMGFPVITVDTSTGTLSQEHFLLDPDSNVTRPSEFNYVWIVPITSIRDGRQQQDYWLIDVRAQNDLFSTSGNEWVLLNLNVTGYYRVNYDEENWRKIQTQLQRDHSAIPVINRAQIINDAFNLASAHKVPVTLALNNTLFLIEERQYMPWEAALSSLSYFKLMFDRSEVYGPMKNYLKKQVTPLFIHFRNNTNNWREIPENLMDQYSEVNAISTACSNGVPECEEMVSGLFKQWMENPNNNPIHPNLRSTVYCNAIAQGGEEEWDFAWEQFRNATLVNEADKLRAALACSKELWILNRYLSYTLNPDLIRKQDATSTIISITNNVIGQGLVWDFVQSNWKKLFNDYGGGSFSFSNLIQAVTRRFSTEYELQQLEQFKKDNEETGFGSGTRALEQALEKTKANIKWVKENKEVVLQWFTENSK

Tests used:
[1] = target: CD13/aminopeptidase N on CD13-transfected cells (Molt-4/CD13, MDA-MB-435/CD13) (Homo sapiens (Human)) (UniProt P15144); test: phage binding to Molt-4 cells transfected with CD13 (figure legend)
[2] = target: CD13/aminopeptidase N on CD13-transfected cells (Molt-4/CD13, MDA-MB-435/CD13) (Homo sapiens (Human)) (UniProt P15144); test: phage binding to transfected cells; 2 x 10^9 TU per sample; bound phage counted by infection of bacteria
[3] = target: CD13/aminopeptidase N (CD13/APN), isolated from octylglucoside cell extracts (Homo sapiens (Human)) (UniProt P15144); test: phage binding to CD13 immobilized by WM15 on microtiter wells (figure legend)

Measured: binding

B1: CNGRC (SEQ ID NO:8) phage (peptide, not shown: large carriers)
chain: CNGRC
binds: all assays above
